{
  "source": "PubChem BioAssay AID662",
  "about": "(National Center for Advancing Translational Sciences (NCATS), 2007)",
  "note": "“And” between values parts separate entries of the source, which are not always exact repeats. Identical values can stand only once. The list shows a part of the results. These are further read-outs of the screen, such as a control signal, another cell line or another target. No call is given for them. The list favours compounds with an active or inconclusive main result. Words in brackets tell the shape of the fitted curve; partial curves, single points and poor fits give uncertain potencies.",
  "data": [
    {"assay": "Cell signaling CRE-BLA (Fsk stim)", "conditions": "CHO CRE-bla reporter (cAMP response element driving beta-lactamase), forskolin EC10, beta-lactamase ratio; measured here: 460 nm blue channel", "method_in_brief": "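Beta-lactamase reporter under a cAMP responsive element in CHO cells; compounds tested in titration series against EC10 NKH 477, 3 h at 37 °C. Read-out: CCF4 FRET ratio 460nm/530nm (excitation 405nm) giving %Activity, fitted to AC50.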", "values": [
      {"smiles": "COc1ccc(-c2cc(C(=O)O)c(C)o2)cc1OC", "AC50": "12.6 µM [rising, single point]"},
      {"smiles": "COc1cccc(-c2nnc(Nc3nc4c(F)cccc4s3)o2)c1", "AC50": "1 µM [rising, single point]"},
      {"smiles": "N#CCc1c(C#N)c(N)nc(N2CCN(S(=O)(=O)c3ccccc3)CC2)c1C#N", "AC50": "12.6 µM [rising, partial curve]"},
      {"smiles": "N/C(CSc1nc(-c2ccccc2)c(-c2ccccc2)o1)=N\\O", "AC50": "12.6 µM [rising, partial curve]"},
      {"smiles": "CCOC(=O)C1CCCN(C(=O)c2cnn3c(C(F)(F)F)cc(-c4ccccc4)nc23)C1", "note": "(stereo not drawn)", "AC50": "15.8 µM [rising, single point]"},
      {"smiles": "CC(=O)Nc1cc(C(=O)O)ccc1S(=O)(=O)c1ccc(C)cc1", "AC50": "5.01 µM [falling, single point]"},
      {"smiles": "CC(C)(C)c1cc(C(=O)O)c(CN2CCCCC2)o1", "AC50": "0.01 µM [falling, partial curve, poor fit]"},
      {"smiles": "CCOc1ccc2c(c1)N(C(=O)CN1C(=O)CCC1=O)C(C)(C)C=C2C", "AC50": "25.1 µM [falling, single point]"},
      {"smiles": "COc1ccc(NC(=O)C2CCCN2S(=O)(=O)c2ccc3c(c2)CCC(=O)N3)cc1Cl", "note": "(stereo not drawn)", "AC50": "12.6 µM [rising, single point]"},
      {"smiles": "CNC(=O)c1cc2c(=O)n3cccc(C)c3nc2n(C(C)C)c1=N", "AC50": "10 µM [rising, partial curve]"},
      {"smiles": "Cc1nnc(NC(=O)c2ccc3ccccc3c2)o1", "AC50": "3.16 µM [rising, single point]"},
      {"smiles": "Cc1noc(C)c1-c1ccc2ncnc(NC3CC3)c2c1", "AC50": "3.98 µM [rising, full curve]"},
      {"smiles": "Cc1cc2c(c(=O)n1C)C(Cc1ccccc1)C(C#N)=C(N)O2", "note": "(stereo not drawn)", "AC50": "12.6 µM [rising, partial curve]"},
      {"smiles": "CCCSc1nnc(Cc2cc(=O)[nH]c(=O)[nH]2)n1-c1cc(C)ccc1C", "AC50": "5.01 µM [falling, single point]"},
      {"smiles": "CCN1C(=O)c2ccccc2S(=O)c2ccc(C(=O)NCCCN3CCCC3=O)cc21", "note": "(stereo not drawn)", "AC50": "25.1 µM [rising, single point]"},
      {"smiles": "Cc1nc2nc(C)c(CCC(=O)NCCC3=CCCCC3)c(C)n2n1", "AC50": "3.98 µM [falling, single point]"},
      {"smiles": "O=C(CSc1nc2ccccc2c(=O)n1NC(=O)Cc1ccccc1)NCc1ccco1", "AC50": "12.6 µM [falling, single point]"},
      {"smiles": "Cc1nc(NCC2CCCO2)c2oc3ccccc3c2n1", "note": "(stereo not drawn)", "AC50": "10 µM [rising, single point]"},
      {"smiles": "COc1ccc(N=c2oc3c(OC)cccc3cc2C(=O)NCc2ccco2)cc1OC", "AC50": "6.31 µM [rising, partial curve]"},
      {"smiles": "Cc1cc(C)n(CC(=O)NCc2cc(-c3nn(C)c(=O)c4ccccc34)ccc2C)n1", "AC50": "25.1 µM [rising, single point]"},
      {"smiles": "CCOc1ccc(-n2cc(C(=O)N3CCCCCC3)c3cc(OC)c(OC)cc3c2=O)cc1", "AC50": "10 µM [rising, single point]"},
      {"smiles": "CCOc1ccc2nc(NC(=O)CSc3nc4c(c(=O)n(C)c(=O)n4C)n3C(C)C)sc2c1", "AC50": "3.16 µM [rising, full curve]"},
      {"smiles": "CCOc1ccc(-c2n[nH]c(C)c2Oc2ccccc2OC)c(O)c1", "AC50": "3.16 µM [falling, partial curve]"},
      {"smiles": "CCOC(=O)c1cc(NC(=O)Nc2ccc(OC)c(OC)c2)c(C)nc1C", "AC50": "10 µM [rising, single point]"},
      {"smiles": "Cc1nc2cc(C(F)(F)F)ccc2n1C1CCN(CC(=O)NC(C)(C)C)CC1", "AC50": "10 µM [rising, single point]"},
      {"smiles": "COc1ccccc1N1CCN(C(=O)c2ccccc2Oc2ccccc2)CC1", "AC50": "6.31 µM [rising, partial curve, poor fit]"},
      {"smiles": "CCCCNC(=O)c1ccc2nc(-c3ccco3)c(-c3ccco3)nc2c1", "AC50": "12.6 µM [rising, partial curve]"},
      {"smiles": "O=c1cnc2cnc(N3CCOCC3)nc2n1Cc1cccs1", "AC50": "20 µM [rising, partial curve]"},
      {"smiles": "Cc1nc2cnc(N(C)C)nc2n(Cc2cccs2)c1=O", "AC50": "12.6 µM [rising, partial curve]"},
      {"smiles": "CC1=C(C(=O)OCc2ccc3c(c2)OCO3)C(c2ccc(Cl)cc2)NC(=O)N1", "note": "(stereo not drawn)", "AC50": "0.0794 µM [falling, full curve]"},
      {"smiles": "CCN(CC)CCn1c2ccccc2c2nc(C)sc21", "AC50": "10 µM [rising, single point]"},
      {"smiles": "C[N+]1(C)CCC(OC(=O)C(c2ccccc2)c2ccccc2)CC1", "AC50": "12.6 µM [falling, single point]"},
      {"smiles": "CC(C)C(NC(=O)C1CCCCC1)C(=O)NCc1ccccn1", "note": "(stereo not drawn)", "AC50": "0.00398 µM [falling, full curve, poor fit]"},
      {"smiles": "COc1cccc(-c2nc(NCCc3c[nH]c4ccc(OC)cc34)c3ccccc3n2)c1", "AC50": "1 µM [falling, single point]"},
      {"smiles": "c1cncc(-c2nn[nH]n2)c1", "AC50": "12.6 µM [rising, single point]"},
      {"smiles": "O=C(Nc1nnc(C2CC2)s1)C1Cc2ccccc2CN1S(=O)(=O)c1cccs1", "note": "(stereo not drawn)", "AC50": "0.316 µM [falling, full curve, poor fit]"},
      {"smiles": "COc1ccc(-c2noc(CCCOc3ccccc3)n2)cc1OC", "AC50": "10 µM [rising, single point]"},
      {"smiles": "CC(=O)Oc1ccccc1C(=O)Nc1ncc([N+](=O)[O-])s1", "AC50": "3.16 µM [falling, full curve]"},
      {"smiles": "Cc1[nH]ccc2c1[nH]c1cc(=O)ccc12", "AC50": "25.1 µM [falling, single point]"},
      {"smiles": "CC(=O)C1=C(C)NC(SCC(=O)c2ccc(Cl)cc2)=C(C#N)C1c1ccco1", "note": "(stereo not drawn)", "AC50": "5.01 µM [rising, partial curve]"},
      {"smiles": "Cc1nn(C)cc1CN(C)C(=O)c1cc2nc(-c3ccco3)cc(C(F)(F)F)n2n1", "AC50": "12.6 µM [rising, partial curve]"},
      {"smiles": "NC(=O)c1oc2ccccc2c1NC(=O)c1ccco1", "AC50": "1.58 µM [rising, full curve, poor fit]"},
      {"smiles": "Oc1cc(O)c2c(c1)O[C@H](c1ccc(O)c(O)c1)[C@@H](O)C2", "AC50": "31.6 µM [falling, single point]"},
      {"smiles": "Cc1ccccc1OCC(O)Cn1c(SC(C)C)nc2c1c(=O)[nH]c(=O)n2C", "note": "(stereo not drawn)", "AC50": "10 µM [rising, partial curve]"},
      {"smiles": "COC(=O)c1ccc(C)c(NS(=O)(=O)c2ccc(OC)cc2)c1", "AC50": "0.316 µM [rising, full curve]"},
      {"smiles": "O=CN1CC(=O)N(c2ccccc2)c2c([nH]c3ccccc23)C1", "AC50": "10 µM [rising, single point]"},
      {"smiles": "CN(C)c1ccc(C2(c3ccc(N(C)C)cc3)OC(=O)c3cc(N(C)C)ccc32)cc1", "AC50": "31.6 µM [rising, single point]"},
      {"smiles": "CCN(CC)C(=O)C1CCN(Cc2ccc(Br)cc2)CC1", "AC50": "3.98 µM [falling, single point]"},
      {"smiles": "CC1CCCCC12NC(=O)N(Cn1nnc3ccccc3c1=O)C2=O", "note": "(stereo not drawn)", "AC50": "1.58 µM [falling, partial curve]"},
      {"smiles": "COC(=O)c1c(C)cc(C)n2c1nc1ccccc12", "AC50": "12.6 µM [rising, single point]"},
      {"smiles": "COc1cc2c(C#N)c(N3CCN(c4ccccc4OC)CC3)nc(N)c2c(N)n1", "AC50": "10 µM [falling, partial curve]"},
      {"smiles": "O=C(c1cnc2sccn2c1=O)N(Cc1ccccc1)c1ccccn1", "AC50": "12.6 µM [rising, partial curve]"},
      {"smiles": "CCn1c(CSc2nnc(-c3ccoc3C)n2C)nc2cc(S(=O)(=O)N(C)C)ccc21", "AC50": "5.01 µM [falling, partial curve]"},
      {"smiles": "COc1ccc2c(=O)c3c(=O)n(Cc4ccco4)c(-c4ccc(C)cc4)nc3oc2c1", "AC50": "0.251 µM [rising, full curve]"},
      {"smiles": "COc1ccc(C2C3=C(CC(C)(C)CC3=O)Oc3ncn(CC(C)C)c(=N)c32)cc1", "note": "(stereo not drawn)", "AC50": "3.16 µM [rising, full curve, poor fit]"},
      {"smiles": "CCOC(=O)CSc1nc2sc3c(c2c(=O)n1CC)CC(C)(C)OC3", "AC50": "10 µM [rising, partial curve]"},
      {"smiles": "CN(C)Cc1ccccc1-c1ccc2ncnc(NC3CCNCC3)c2c1", "AC50": "0.631 µM [rising, full curve]"},
      {"smiles": "O=c1oc(-c2ccco2)nc2ccccc12", "AC50": "25.1 µM [rising, single point]"},
      {"smiles": "CC(C)(C(=O)O)c1ccc([C@@H](O)CCCN2CCC(C(O)(c3ccccc3)c3ccccc3)CC2)cc1", "AC50": "31.6 µM [falling, single point]"},
      {"smiles": "O=C(O)COc1ccc(Br)cc1/C=N/O", "AC50": "0.01 µM [falling, full curve]"},
      {"smiles": "Cc1cc2nc(N)sc2cc1C", "AC50": "1 µM [rising, full curve, poor fit]"},
      {"smiles": "COc1ccccc1C(=O)Nc1c2c(nn1-c1cccc(C)c1C)CS(=O)(=O)C2", "AC50": "1.26 µM [rising, full curve]"},
      {"smiles": "N#Cc1c(N)nc2c(c1-c1ccncc1)CCCC2", "AC50": "25.1 µM [rising, single point]"},
      {"smiles": "CCOC(=O)c1cc(CC)sc1NC(=O)Cc1ccsc1", "AC50": "2 µM [rising, single point]"},
      {"smiles": "COc1ccc2[nH]c(=O)c3c(c2c1)OC(C)(C)C=C3", "AC50": "10 µM [falling, partial curve] and 5.01 µM [falling, partial curve]"},
      {"smiles": "CCNc1ncc2nc(CCc3ccccc3)c(=O)n(CCC#N)c2n1", "AC50": "10 µM [rising, partial curve]"},
      {"smiles": "CCC(Sc1nc2c(cnn2-c2ccc(Cl)cc2)c(=O)[nH]1)C(=O)OC", "note": "(stereo not drawn)", "AC50": "3.16 µM [rising, single point]"},
      {"smiles": "COc1ccccc1-c1noc(-c2ccccc2C(=O)N2CCOCC2)n1", "AC50": "0.316 µM [falling, partial curve]"}
    ]}
  ]
}
